{
  "source": "paper doi:10.1101/2023.10.13.562043",
  "binders": {"B1": {"name": "ScPEX5 (protein, UniProt P35056 1-612)", "chain": "MDVGSCSVGNNPLAQLHKHTQQNKSLQFNQKNNGRLNESPLQGTNKPGISEAFISNVNAISQENMANMQRFINGEPLIDDKRRMEIGPSSGRLPPFSNVHSLQTSANPTQIKGVNDISHWSQEFQGSNSIQNRNADTGNSEKAWQRGSTTASSRFQYPNTMMNNYAYASMNSLSGSRLQSPAFMNQQQSGRSKEGVNEQEQQPWTDQFEKLEKEVSENLDINDEIEKEENVSEVEQNKPETVEKEEGVYGDQYQSDFQEVWDSIHKDAEEVLPSELVNDDLNLGEDYLKYLGGRVNGNIEYAFQSNNEYFNNPNAYKIGCLLMENGAKLSEAALAFEAAVKEKPDHVDAWLRLGLVQTQNEKELNGISALEECLKLDPKNLEAMKTLAISYINEGYDMSAFTMLDKWAETKYPEIWSRIKQQDDKFQKEKGFTHIDMNAHITKQFLQLANNLSTIDPEIQLCLGLLFYTKDDFDKTIDCFESALRVNPNDELMWNRLGASLANSNRSEEAIQAYHRALQLKPSFVRARYNLAVSSMNIGCFKEAAGYLLSVLSMHEVNTNNKKGDVGSLLNTYNDTVIETLKRVFIAMNRDDLLQEVKPGMDLKRFKGEFSF"}},
  "biological_target": "T1, ScPCS60 (S. cerevisiae) (UniProt P38137)",
  "T1 sequence": "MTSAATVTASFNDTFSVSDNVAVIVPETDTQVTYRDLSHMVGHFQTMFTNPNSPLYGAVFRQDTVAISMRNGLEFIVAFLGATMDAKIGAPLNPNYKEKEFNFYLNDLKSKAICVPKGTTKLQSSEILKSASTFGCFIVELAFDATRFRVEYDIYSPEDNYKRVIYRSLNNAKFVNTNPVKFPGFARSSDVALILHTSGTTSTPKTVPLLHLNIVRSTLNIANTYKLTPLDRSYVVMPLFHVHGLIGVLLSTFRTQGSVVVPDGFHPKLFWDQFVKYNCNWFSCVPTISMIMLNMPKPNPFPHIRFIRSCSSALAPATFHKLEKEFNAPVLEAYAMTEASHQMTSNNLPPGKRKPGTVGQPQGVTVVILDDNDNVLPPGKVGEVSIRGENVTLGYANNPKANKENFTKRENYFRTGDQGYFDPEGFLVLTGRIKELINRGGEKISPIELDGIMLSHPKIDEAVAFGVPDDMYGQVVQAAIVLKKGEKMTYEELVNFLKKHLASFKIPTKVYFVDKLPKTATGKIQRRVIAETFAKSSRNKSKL",
  "assay": "two-hybrid",
  "note": "These are yes or no findings as the source states them, for the method shown. Some entries that bind do so weakly or less than the wild type.",
  "data": [
    {"binder": "B1", "values": [
      {"measurement": "binding", "value": "binds"}
    ]}
  ]
}
